# Assay results from PMC7819943, “Rice protein-binding microarrays: a tool to detect cis-acting elements near promoter regions in rice”.
# The other results are listed elsewhere or left out.
# Target: T1, OsSMF1 (Oryza sativa, UniProt Q6ZLB0 1-436)
# T1 sequence: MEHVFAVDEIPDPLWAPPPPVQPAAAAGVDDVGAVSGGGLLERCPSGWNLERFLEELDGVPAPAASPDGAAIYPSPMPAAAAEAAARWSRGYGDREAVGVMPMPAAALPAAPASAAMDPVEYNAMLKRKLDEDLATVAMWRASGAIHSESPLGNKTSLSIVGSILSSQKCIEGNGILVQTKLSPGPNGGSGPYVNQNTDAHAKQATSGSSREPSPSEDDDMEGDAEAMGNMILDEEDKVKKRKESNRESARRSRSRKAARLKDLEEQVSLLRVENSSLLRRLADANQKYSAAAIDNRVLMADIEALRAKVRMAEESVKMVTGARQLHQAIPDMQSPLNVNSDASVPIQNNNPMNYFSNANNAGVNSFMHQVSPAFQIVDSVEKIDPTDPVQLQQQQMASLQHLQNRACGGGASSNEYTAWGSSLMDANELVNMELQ
# Test: protein-binding microarray (RPBM); PBS, 2% BSA, 51.3 ng/ul salmon testes DNA, 50 uM zinc acetate, 200 nM TF, 25 C, 1 h; high values mean tight binding
# Details: protein: recombinant; tags: N-terminal polyhistidine and DsRed monomer fusion (pET32a); chain copies: 2; label: CyDye5-dUTP incorporated in the synthesized complementary strand; 3' TTTTT single-stranded linker to array surface; dsDNA, one strand shown
# Procedure, shortened: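 The binding signal is fluorescence intensity per array feature (arbitrary units). Readings came from an Axon 4000B scanner after a washed, 2% BSA-blocked, double-stranded custom Agilent array had been incubated for 1 h at 25 °C with 200 nM protein and 50 µM zinc acetate. The protein was a Ni–NTA-purified transcription factor fused N-terminally to polyhistidine and DsRed, expressed in E. coli BL21-CodonPlus.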
row,Sequence,binding signal
1,CCTAGCTAGTAGCTGCTGGTAAACTACCGTCCTGAGCAACCGGAGTCACCTAGTGCAG,25700 fluorescence intensity (a.u.)
2,AAATAGAACTATGTCTTTCTTTCATCATCTCCTCCCGGCTCGGAGTCACCTAGTGCAG,3220 fluorescence intensity (a.u.)
3,CTACACAAGTAAACTTTCAACTTTTCTGTCACATCATTTTCGGAGTCACCTAGTGCAG,3780 fluorescence intensity (a.u.)
4,CCTCCCAATTTGATCATGCATGGGTCCACATGCTCAATGACGGAGTCACCTAGTGCAG,3700 fluorescence intensity (a.u.)
5,TTGTTGGCCGGTTACCACCTTTTCACAGTCACTGCACTGCCGGAGTCACCTAGTGCAG,3970 fluorescence intensity (a.u.)
6,AATCGATGAGGCCCTACGTGTGTTTTCTGTCAGCTTGCTACGGAGTCACCTAGTGCAG,5470 fluorescence intensity (a.u.)
7,ACAGTGCAACAGTCAAAATGATCTGCAAAGAAAGTCAATGCGGAGTCACCTAGTGCAG,3650 fluorescence intensity (a.u.)
8,CGCGATCCTGACAGTATATTCTATCTTTGACACAGTCTGACGGAGTCACCTAGTGCAG,3320 fluorescence intensity (a.u.)
9,AGACTTCGGTTTGGCGACGCAACGCAACGCAGCGCAGCCGCGGAGTCACCTAGTGCAG,3610 fluorescence intensity (a.u.)
10,GGTATCCAGCCTTTCGGTCACCCGGACGCCACTGAAGATTCGGAGTCACCTAGTGCAG,22800 fluorescence intensity (a.u.)
11,GAGACTATTTGTCCCCTTGTGGTTACATGTCACTCAAATGCGGAGTCACCTAGTGCAG,3550 fluorescence intensity (a.u.)
12,GCTATCGGTCGCCACGTGGAGCCCAGCTGTCCACGTACAACGGAGTCACCTAGTGCAG,14700 fluorescence intensity (a.u.)
13,GGCGACGCCATCCGCGTCAACGTAGGAGAACATCCCCACTCGGAGTCACCTAGTGCAG,3380 fluorescence intensity (a.u.)
14,AGACCCAAGTCACTCTCTCCGCTCCAGTCTCCACTCTCCACGGAGTCACCTAGTGCAG,23100 fluorescence intensity (a.u.)
15,GAGCCGCTGCGGCGGGCACAACACAGCGCGTGCGTGGGTGCGGAGTCACCTAGTGCAG,32600 fluorescence intensity (a.u.)
16,TCGGTTTTGTGATCGAGGGGTCGATGACTCAATCATAAGGCGGAGTCACCTAGTGCAG,5220 fluorescence intensity (a.u.)
17,GGCCGCAGCCGCGTTGGCACGCGGCCCAACAACGCAGTCACGGAGTCACCTAGTGCAG,4390 fluorescence intensity (a.u.)
18,TTCGTCATAGTGTGGAACGACACATCATGAAGATTAGAGACGGAGTCACCTAGTGCAG,3630 fluorescence intensity (a.u.)
19,CCTCCGCCTCCTCCCGCGCGCTGCGTACGTGACAGCGCCACGGAGTCACCTAGTGCAG,3500 fluorescence intensity (a.u.)
20,TGCACAAGTCGATCGACTTGAATTCCTGCACATGAGTCACCGGAGTCACCTAGTGCAG,6120 fluorescence intensity (a.u.)
21,TTAACGGTTGGTAATTAGCTACGTGGATCAACGACGATACCGGAGTCACCTAGTGCAG,6000 fluorescence intensity (a.u.)

row,Sequence,binding signal
1,GCGTCCTGCAACATCTGACCAAGATCATCCGCAACGTCGTCGGAGTCACCTAGTGCAG,3350 fluorescence intensity (a.u.)
2,AGATAAGATTTATGTTCCATGTTTACTTTGTTATTTAGGACGGAGTCACCTAGTGCAG,5430 fluorescence intensity (a.u.)
3,TAAATTGACAAATTCAACCTAGGCCTGGACTTATTTGGCGCGGAGTCACCTAGTGCAG,11500 fluorescence intensity (a.u.)
4,ATATATATATTTAAGTGAATTTTATTTTAACTAAACCATACGGAGTCACCTAGTGCAG,3790 fluorescence intensity (a.u.)
5,TCTCTCTTACCGTCATGCTGTCTCAACAGTATATTCAAATCGGAGTCACCTAGTGCAG,3470 fluorescence intensity (a.u.)
6,AGGCCTCCTTCTCCCGCTGCCGGCGGTATCGCTGGTGGAGCGGAGTCACCTAGTGCAG,3940 fluorescence intensity (a.u.)
7,CCACAAGGCTGGAACCAGGTATAACAAGCGGAACGCCTCCCGGAGTCACCTAGTGCAG,36700 fluorescence intensity (a.u.)
8,TTTTCATCTATAGTCATTGTTACTTATGTTGGAGTAGTATCGGAGTCACCTAGTGCAG,3380 fluorescence intensity (a.u.)
9,TTGTTCCTATAGTAGCTCTCTAATCATAATCATAAGAATACGGAGTCACCTAGTGCAG,3410 fluorescence intensity (a.u.)
10,CGTTTTGCTGCAGGATATATGGATGAATACGTGTTATACACGGAGTCACCTAGTGCAG,3340 fluorescence intensity (a.u.)
11,GCAGTTGGTGACTTGGTTCGTTCCGCACACTCCACTCCACCGGAGTCACCTAGTGCAG,3150 fluorescence intensity (a.u.)
12,GGGGATGGGGATTCGATGTGTCTATGCGTGGGCCCTGGTTCGGAGTCACCTAGTGCAG,3860 fluorescence intensity (a.u.)
13,TTTGGTGCGGGGAGCCGTCGATTCGCCACGAAACCCAACCCGGAGTCACCTAGTGCAG,3480 fluorescence intensity (a.u.)
14,CAAGAAACCAAGAACGCTTCTTGGCGTACGTGTCTGCAAACGGAGTCACCTAGTGCAG,5700 fluorescence intensity (a.u.)
15,TACTACCCGTCGTCGTCGTCATCTTCTTCTTCCTGGTATTCGGAGTCACCTAGTGCAG,3600 fluorescence intensity (a.u.)
16,GGTCCAGCTTGTCCCATTGATCTCTCTTCACTGAAATCCACGGAGTCACCTAGTGCAG,12300 fluorescence intensity (a.u.)
17,AAATTAGAGATGATGTGGCTGAAAAGTTATGTGTATGACACGGAGTCACCTAGTGCAG,7570 fluorescence intensity (a.u.)
18,CTTTGCCTCGCCACCGCCCGAGCGGCGCGTCGGCAAAGCCCGGAGTCACCTAGTGCAG,3430 fluorescence intensity (a.u.)
19,TCGATAACGAGACGCCTGTGGTGATTTCGTCGATTAGTACCGGAGTCACCTAGTGCAG,4650 fluorescence intensity (a.u.)
20,AAATGCATCTCTCAACAACAGTGCTTATAAAAGGACAATTCGGAGTCACCTAGTGCAG,4080 fluorescence intensity (a.u.)
21,CACCTAGAGAGTGTCCATGCTACGTCACGCGTGGATGAGACGGAGTCACCTAGTGCAG,8980 fluorescence intensity (a.u.)

# Looked up one by one from above:
row,Sequence,binding signal
17,GGCCGCAGCCGCGTTGGCACGCGGCCCAACAACGCAGTCACGGAGTCACCTAGTGCAG,4390 fluorescence intensity (a.u.)
9,TTGTTCCTATAGTAGCTCTCTAATCATAATCATAAGAATACGGAGTCACCTAGTGCAG,3410 fluorescence intensity (a.u.)
